According to patent US12503486 (dated 2025):

Tests used:
[1] = general procedure: Fmoc solid-phase peptide synthesis; Formula (viii)-CTC resin; PyBop/DIEA (on-resin cyclisation of PMX-53); conditions: whole synthesis, scale 5 mmol, trifluoroacetate
[2] = general procedure: Fmoc solid-phase peptide synthesis; AM, MBHA or CTC resin carrying the Formula (1) linker compound; PyBop/DIEA (on-resin cyclisation of PMX-53); conditions: for final HPLC purity / crude HPLC purity / isolated mass / crude yield / isolated yield / crude mass: whole synthesis; for final HPLC purity: EP8.0, scale of the general procedure 1-5 mmol; for isolated mass: acetate; for crude mass: trifluoroacetate
[3] = general procedure: Fmoc solid-phase peptide synthesis; AM resin; PyBop/DIEA (on-resin cyclisation of PMX-53); conditions: whole synthesis, scale 1 mmol, trifluoroacetate
[4] = acetate (PMX-53: trifluoroacetate)
[5] = on 5 mmol resin N-Fmoc, scale of the general procedure 1-5 mmol, acetate (PMX-53: trifluoroacetate)
[6] = on 5 mmol resin NH2, scale of the general procedure 1-5 mmol, acetate (PMX-53: trifluoroacetate), run 1
[7] = on 5 mmol resin NH2, scale of the general procedure 1-5 mmol, acetate (PMX-53: trifluoroacetate), run 2
[8] = on 1 mmol resin NH2, scale of the general procedure 1-5 mmol, acetate (PMX-53: trifluoroacetate)

In the case of Alarelin acetate, the crude mass [1] is reported as 10.78 g, the “final HPLC purity” value [2, 4] is reported as 99.76% and the “crude HPLC purity” value ([2]; EP (8.0) method, scale of the general procedure 1-5 mmol, acetate (PMX-53: trifluoroacetate)) is reported as 96.14%. The isolated mass [2] was 4.16 g, the crude yield [2, 5] was 88.84% and the isolated yield [2, 5] was 35.5%.

For “Glp-His(Trt)-Trp(Boc)-Ser(t-Bu)-Tyr(t-Bu)-DLeu-Leu-Arg(pbf)-Pro-Formula (1)-resin”, the step yield ([2]; purification step, acetate (PMX-53: trifluoroacetate)) was 65%, the isolated mass ([2]; run 1) was 2.46 g and the isolated mass ([2]; run 2) was 2.02 g. It also gave an isolated mass ([2]; run 3) of 2.35 g, a crude yield ([2]; on 5 mmol resin NH2, purity-corrected, scale 5 mmol, acetate (PMX-53: trifluoroacetate)) of 92.6% and a crude yield [2, 6] of 85.6%. For the same substance, the isolated yield [2, 6] was 40.6%, the crude yield [2, 7] was 90.5% and the isolated yield [2, 7] was 33.4%. For the same substance, the isolated yield ([2]; on 5 mmol resin NH2, scale of the general procedure 1-5 mmol, acetate (PMX-53: trifluoroacetate), run 3) was 38.8%, the crude mass ([2]; scale 5 mmol, run 1) was 5.87 g and the crude mass ([2]; scale 5 mmol, run 2) was 5.46 g. For the same substance, the crude mass ([2]; scale 5 mmol, run 3) was 5.71 g.

For Liraglutide acetate, the “final HPLC purity” value [2, 4] was 99.21%, the isolated mass [2] was 0.68 g and the “crude HPLC purity” value ([2]; assay according to EP8.0 (European Pharmacopoeia 8.0), scale of the general procedure 1-5 mmol, acetate (PMX-53: trifluoroacetate)) was 67.45%. For the same substance, the crude yield [2, 8] was 66.9%, the isolated yield [2, 8] was 18.1% and the crude mass [3] was 3.72 g.
